Assay results taken from paper PMC11053755.
No constants are given. Whether binding was seen depends on the method and setting.

Target: T1, OsSHMT1 (rice serine hydroxymethyltransferase 1) (rice (Oryza sativa)) (UniProt Q10D68)
T1 sequence: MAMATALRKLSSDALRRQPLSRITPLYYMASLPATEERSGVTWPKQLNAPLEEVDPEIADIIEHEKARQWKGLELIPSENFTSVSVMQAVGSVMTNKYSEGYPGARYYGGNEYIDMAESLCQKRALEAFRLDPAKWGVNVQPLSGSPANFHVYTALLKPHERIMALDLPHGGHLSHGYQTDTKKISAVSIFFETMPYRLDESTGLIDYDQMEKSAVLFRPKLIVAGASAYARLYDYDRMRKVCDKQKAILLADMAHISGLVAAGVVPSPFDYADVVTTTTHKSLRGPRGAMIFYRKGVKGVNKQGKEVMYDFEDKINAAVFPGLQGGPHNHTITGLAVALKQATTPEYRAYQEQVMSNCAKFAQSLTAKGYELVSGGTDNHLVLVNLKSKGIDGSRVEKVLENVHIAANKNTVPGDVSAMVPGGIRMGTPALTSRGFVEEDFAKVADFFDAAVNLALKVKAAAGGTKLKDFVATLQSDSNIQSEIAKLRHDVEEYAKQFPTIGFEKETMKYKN
Test: two-hybrid; GAL4 system; OsSHMT coding regions in pGBKT7 (BD) and pGADT7 (AD), co-transfected into yeast AH109; grown on SD/-Leu/-Trp, then SD/-Leu/-Trp/-His/-Ade to verify interactions

binding: no binding
Substance: OsSHMT3 (rice serine hydroxymethyltransferase 3) (enzyme)
